# Assay results taken from the supplement of paper PMC5407854, “Inhibitor of ppGalNAc-T3-mediated O-glycosylation blocks cancer cell invasiveness and lowers FGF23 levels” (eLife, 2017).
# The other results are listed elsewhere or left out. Small differences around the control level are noise.
# Tests used:
# [1] = system: ppGalNAc-T3 sensor; assay: T3 sensor activation Q score (MG/GFP ratio z-score vs DMSO controls) (SD units); higher = more sensor activation (inhibition of ppGalNAc-T3 glycosylation); settings: HEK293 sensor cells; 10 µM; 6 h
# Protocol: (§1)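 Cells were treated with compound at 10 uM for 6 h, then MG/GFP ratio was read by flow cytometry (10,000 cells per well, duplicate wells). Q = (R - R_neg)/SD_neg relative to DMSO vehicle controls; the signal rises when the glycosyltransferase is inhibited.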
# [2] = system: ppGalNAc-T2 sensor; assay: T2 sensor activation Q score (MG/GFP ratio z-score vs DMSO controls) (SD units); higher = more sensor activation (inhibition of ppGalNAc-T2 glycosylation); settings: HEK293 sensor cells; 10 µM; 6 h
# Protocol: as §1
SMILES,T3 sensor activation Q score [1],T2 sensor activation Q score [2]
COc1cccc(CN2CCSCC2)c1OC,0.155,0.405
NC(=O)c1ccc(C(N)=O)cc1,2.05,0.035
NC(=O)c1ccc(-n2nnnc2SCc2ccc(Cl)cc2)cc1,-0.65,-1.02
Cc1ccc(NS(=O)(=O)c2ccc(Cl)cc2)c(C)c1,0.24,-0.93
c1ccc(OCCCN2CCCCC2)cc1,-0.215,-0.295
CCOc1ccc(CN2CCN(Cc3ccc4c(c3)OCO4)CC2)cc1,-0.505,-0.545
COc1ccc(N2CCOCC2)cc1,0.305,-1.01
Cc1cccc(C)c1NCc1c(F)cccc1F,1.05,-0.115
O=C1CC(Nc2ccc(Br)cc2)C(=O)N1c1cccc(Cl)c1 (stereo not drawn),0.92,1
Brc1ccccc1CN1CCc2ccccc2C1,-0.31,0.725
CC1CCCN(CC(O)COc2ccc(Cl)cc2)C1 (stereo not drawn),-0.06,-0.02
O=C(O)CCNCc1ccccc1,-0.86,-1.66
O=C1C2ON(c3ccccc3)C(c3ccc(F)cc3)C2C(=O)N1Cc1ccccc1 (stereo not drawn),0.695,-1.09
CCN1CCN(CCC(C)c2ccccc2)CC1 (stereo not drawn),0.29,0.555
O=c1nc2cc3[nH]c4c(=O)c5ccccc5c4[nH]c3cc2n1,-0.085,-0.295
Nc1ccc(CCC(=O)O)cc1,0.65,0.435
CCCC(O)=C1C(=O)CC(C)(C)CC1=Nc1cccc([N+](=O)[O-])c1,-0.87,-0.015
COc1ccc(C2C3C(=O)N(Cc4ccccc4)C(=O)C3ON2c2ccccc2)cc1 (stereo not drawn),-0.465,-0.795
COc1cccc(CN2CCN(c3cccc(C)c3C)CC2)c1OC,0.37,0.04
O=C(CCCOc1ccc(Cl)cc1Cl)N1CCOCC1,0.515,-0.57
Cc1ccc(NC2=C(NCCO)C(=O)c3ccccc3C2=O)cc1,-0.345,-0.55
COc1[nH]c2ccccc2c1C=NO,-0.4,-0.105
CCN(CC)C(=O)C1CCCN(Cc2c(Cl)cccc2Cl)C1 (stereo not drawn),-0.195,0.335
O=C1c2ccc(Br)cc2C(=O)N1CCO,-0.485,0.06
CS(=O)(=O)c1nc2ccccc2[nH]1,0.295,0.81

# In another format: results already given.
SMILES	T3 sensor activation Q score [1]	T2 sensor activation Q score [2]
Cc1cccc(C)c1NCc1c(F)cccc1F	1.05	-0.115
CC1CCCN(CC(O)COc2ccc(Cl)cc2)C1 (stereo not drawn)	-0.06	-0.02

# Further structures follow.

SMILES,T3 sensor activation Q score [1],T2 sensor activation Q score [2]
NCCCCNc1ccccc1[N+](=O)[O-],0.11,-0.89
O=C(c1sc2cc([N+](=O)[O-])ccc2c1Cl)N1CCOCC1,0.4,-0.185
Cc1ccc(C)c(NS(C)(=O)=O)c1,0.02,-0.275
CCC(C(=O)Nc1cccc(C)c1C)c1ccccc1 (stereo not drawn),-0.985,1.49
O=[N+]([O-])c1ccccc1N1CCCNCC1,0.355,-0.455
Cc1ccc(OCC(O)CN(C)C2CCCCC2)cc1C (stereo not drawn),0.565,-0.625
COc1ccc(CN2CCC(N3CCCCC3)CC2)c(OC)c1C,1.45,-1.71
CCCN(CCO)Cc1ccc(F)cc1F,0.665,0.45
COc1ccc(-c2nc3ccccc3[nH]2)cc1,0.7,-0.55
Cc1ccccc1NC1=C(N)C(=O)c2ccccc2C1=O,-0.285,0.81
Cc1ccc(S(=O)(=O)N=C2CN(C)C(=O)N2C)cc1,-0.86,-0.17
COc1cc2c(cc1OC)CN(Cc1ccc(Br)cc1)CC2,0.42,-0.285
O=C(O)C(F)(F)C12OC3C4C5CC(C6C5C3C61)C42 (stereo not drawn),0.365,0.73
Cc1ccc2nc(NCCCO)[nH]c2c1,-0.305,1
O=[N+]([O-])c1ccc(-c2cnc3ccccc3n2)cc1,0.17,0.055
Cc1cccc(OCCCN2CCOCC2)c1,-0.335,0.32
COc1ccccc1C(=O)Nc1cc(C(C)C)ccc1O,-0.485,0.125
CC(=O)C1=C(O)C(=O)N(CCO)C1c1ccccc1F (stereo not drawn),0.805,-0.84
O=C(Nc1ccc(N2CCOCC2)cc1)c1ccccc1F,0.955,-0.08
Cc1cc(=O)n2ccc([N+](=O)[O-])c(O)c2n1,0.75,-0.41
CC(=O)N1CCN(Cc2ccc(Cl)cc2Cl)CC1,0.14,0.47
Fc1c(F)c(F)c(CSc2nc3ccccc3[nH]2)c(F)c1F,0.075,0.84
O=C(Nc1cccc(NC(=O)c2ccccc2Cl)c1)c1cccc(I)c1,0.27,0.125
CCC(C)Sc1nc(O)c(Cc2ccccc2)c(=O)[nH]1 (stereo not drawn),0.07,-0.855
